Laboratory results published in the supplement of paper PMC12067093, “Discovery and optimisation of a covalent ligand for TRIM25 and its application to targeted protein ubiquitination” (Chemical Science, 2025).
Some of the results follow.
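Also: competitive profiling in live THP-1 cells: cysteine peptides tagged with an iodoacetamide desthiobiotin (IA-DTB) probe, intensity after compound treatment relative to DMSO-treated cells.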

Chains of the proteins cited; added tags and fusions are not shown. Lines headed by an entry give the natural chain unless they say otherwise; changes in a name come on top.
UniProt Q9H9L4: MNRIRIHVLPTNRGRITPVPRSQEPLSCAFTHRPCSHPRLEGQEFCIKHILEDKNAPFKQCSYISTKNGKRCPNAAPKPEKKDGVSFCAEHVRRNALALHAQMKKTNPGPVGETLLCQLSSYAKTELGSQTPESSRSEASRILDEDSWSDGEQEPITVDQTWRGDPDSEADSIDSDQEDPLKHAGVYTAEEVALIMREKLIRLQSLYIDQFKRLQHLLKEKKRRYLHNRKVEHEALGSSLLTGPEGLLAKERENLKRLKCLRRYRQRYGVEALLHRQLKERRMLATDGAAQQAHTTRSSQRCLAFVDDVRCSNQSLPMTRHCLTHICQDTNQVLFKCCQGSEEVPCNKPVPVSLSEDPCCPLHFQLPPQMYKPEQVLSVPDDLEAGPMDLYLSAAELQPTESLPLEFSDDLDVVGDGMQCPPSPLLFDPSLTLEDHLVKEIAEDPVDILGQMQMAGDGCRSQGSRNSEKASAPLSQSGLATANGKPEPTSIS
UniProt Q9ULH0: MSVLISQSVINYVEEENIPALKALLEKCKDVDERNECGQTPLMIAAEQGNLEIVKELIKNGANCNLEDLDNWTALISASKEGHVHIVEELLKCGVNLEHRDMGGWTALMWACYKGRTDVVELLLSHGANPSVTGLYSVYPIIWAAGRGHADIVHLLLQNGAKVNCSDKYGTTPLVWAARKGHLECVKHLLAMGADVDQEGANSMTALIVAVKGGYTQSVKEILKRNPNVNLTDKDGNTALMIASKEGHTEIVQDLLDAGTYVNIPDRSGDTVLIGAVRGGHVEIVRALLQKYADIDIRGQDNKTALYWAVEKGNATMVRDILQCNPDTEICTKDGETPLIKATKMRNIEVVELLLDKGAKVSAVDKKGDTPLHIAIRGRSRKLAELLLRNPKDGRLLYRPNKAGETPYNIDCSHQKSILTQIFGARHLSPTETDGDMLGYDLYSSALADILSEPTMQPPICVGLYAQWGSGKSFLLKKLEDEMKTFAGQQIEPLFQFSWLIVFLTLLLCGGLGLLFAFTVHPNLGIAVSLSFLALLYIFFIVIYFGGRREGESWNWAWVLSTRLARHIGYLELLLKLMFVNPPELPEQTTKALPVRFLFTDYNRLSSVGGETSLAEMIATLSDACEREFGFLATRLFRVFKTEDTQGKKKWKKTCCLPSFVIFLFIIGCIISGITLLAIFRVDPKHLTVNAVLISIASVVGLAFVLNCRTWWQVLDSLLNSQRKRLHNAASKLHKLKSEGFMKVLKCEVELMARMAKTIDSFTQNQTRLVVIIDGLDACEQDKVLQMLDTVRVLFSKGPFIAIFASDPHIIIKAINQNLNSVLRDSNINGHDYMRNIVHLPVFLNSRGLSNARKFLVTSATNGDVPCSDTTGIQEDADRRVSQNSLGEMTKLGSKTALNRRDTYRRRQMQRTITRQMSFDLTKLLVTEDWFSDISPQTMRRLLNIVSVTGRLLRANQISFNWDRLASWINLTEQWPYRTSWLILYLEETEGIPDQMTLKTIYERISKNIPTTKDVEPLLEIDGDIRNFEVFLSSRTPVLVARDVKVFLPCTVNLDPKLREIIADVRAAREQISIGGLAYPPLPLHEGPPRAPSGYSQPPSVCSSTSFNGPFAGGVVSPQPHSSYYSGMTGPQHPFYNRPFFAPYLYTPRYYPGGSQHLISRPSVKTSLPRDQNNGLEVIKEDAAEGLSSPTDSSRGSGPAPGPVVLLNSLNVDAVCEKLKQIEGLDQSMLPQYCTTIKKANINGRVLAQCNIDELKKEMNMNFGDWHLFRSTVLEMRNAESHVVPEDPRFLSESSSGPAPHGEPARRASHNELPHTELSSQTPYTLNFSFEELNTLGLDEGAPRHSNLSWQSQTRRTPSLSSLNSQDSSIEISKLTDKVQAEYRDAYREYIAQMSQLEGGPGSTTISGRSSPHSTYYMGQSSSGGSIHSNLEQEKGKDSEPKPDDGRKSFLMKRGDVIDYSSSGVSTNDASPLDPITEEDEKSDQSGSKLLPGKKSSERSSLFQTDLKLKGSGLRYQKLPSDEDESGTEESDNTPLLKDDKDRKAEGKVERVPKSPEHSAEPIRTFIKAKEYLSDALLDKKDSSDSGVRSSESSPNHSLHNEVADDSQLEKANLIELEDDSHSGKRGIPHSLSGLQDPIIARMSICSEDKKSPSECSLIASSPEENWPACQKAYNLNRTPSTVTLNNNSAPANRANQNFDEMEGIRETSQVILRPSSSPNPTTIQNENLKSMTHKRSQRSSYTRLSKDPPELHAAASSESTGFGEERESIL
UniProt Q8WYB5, whole entry, looked up: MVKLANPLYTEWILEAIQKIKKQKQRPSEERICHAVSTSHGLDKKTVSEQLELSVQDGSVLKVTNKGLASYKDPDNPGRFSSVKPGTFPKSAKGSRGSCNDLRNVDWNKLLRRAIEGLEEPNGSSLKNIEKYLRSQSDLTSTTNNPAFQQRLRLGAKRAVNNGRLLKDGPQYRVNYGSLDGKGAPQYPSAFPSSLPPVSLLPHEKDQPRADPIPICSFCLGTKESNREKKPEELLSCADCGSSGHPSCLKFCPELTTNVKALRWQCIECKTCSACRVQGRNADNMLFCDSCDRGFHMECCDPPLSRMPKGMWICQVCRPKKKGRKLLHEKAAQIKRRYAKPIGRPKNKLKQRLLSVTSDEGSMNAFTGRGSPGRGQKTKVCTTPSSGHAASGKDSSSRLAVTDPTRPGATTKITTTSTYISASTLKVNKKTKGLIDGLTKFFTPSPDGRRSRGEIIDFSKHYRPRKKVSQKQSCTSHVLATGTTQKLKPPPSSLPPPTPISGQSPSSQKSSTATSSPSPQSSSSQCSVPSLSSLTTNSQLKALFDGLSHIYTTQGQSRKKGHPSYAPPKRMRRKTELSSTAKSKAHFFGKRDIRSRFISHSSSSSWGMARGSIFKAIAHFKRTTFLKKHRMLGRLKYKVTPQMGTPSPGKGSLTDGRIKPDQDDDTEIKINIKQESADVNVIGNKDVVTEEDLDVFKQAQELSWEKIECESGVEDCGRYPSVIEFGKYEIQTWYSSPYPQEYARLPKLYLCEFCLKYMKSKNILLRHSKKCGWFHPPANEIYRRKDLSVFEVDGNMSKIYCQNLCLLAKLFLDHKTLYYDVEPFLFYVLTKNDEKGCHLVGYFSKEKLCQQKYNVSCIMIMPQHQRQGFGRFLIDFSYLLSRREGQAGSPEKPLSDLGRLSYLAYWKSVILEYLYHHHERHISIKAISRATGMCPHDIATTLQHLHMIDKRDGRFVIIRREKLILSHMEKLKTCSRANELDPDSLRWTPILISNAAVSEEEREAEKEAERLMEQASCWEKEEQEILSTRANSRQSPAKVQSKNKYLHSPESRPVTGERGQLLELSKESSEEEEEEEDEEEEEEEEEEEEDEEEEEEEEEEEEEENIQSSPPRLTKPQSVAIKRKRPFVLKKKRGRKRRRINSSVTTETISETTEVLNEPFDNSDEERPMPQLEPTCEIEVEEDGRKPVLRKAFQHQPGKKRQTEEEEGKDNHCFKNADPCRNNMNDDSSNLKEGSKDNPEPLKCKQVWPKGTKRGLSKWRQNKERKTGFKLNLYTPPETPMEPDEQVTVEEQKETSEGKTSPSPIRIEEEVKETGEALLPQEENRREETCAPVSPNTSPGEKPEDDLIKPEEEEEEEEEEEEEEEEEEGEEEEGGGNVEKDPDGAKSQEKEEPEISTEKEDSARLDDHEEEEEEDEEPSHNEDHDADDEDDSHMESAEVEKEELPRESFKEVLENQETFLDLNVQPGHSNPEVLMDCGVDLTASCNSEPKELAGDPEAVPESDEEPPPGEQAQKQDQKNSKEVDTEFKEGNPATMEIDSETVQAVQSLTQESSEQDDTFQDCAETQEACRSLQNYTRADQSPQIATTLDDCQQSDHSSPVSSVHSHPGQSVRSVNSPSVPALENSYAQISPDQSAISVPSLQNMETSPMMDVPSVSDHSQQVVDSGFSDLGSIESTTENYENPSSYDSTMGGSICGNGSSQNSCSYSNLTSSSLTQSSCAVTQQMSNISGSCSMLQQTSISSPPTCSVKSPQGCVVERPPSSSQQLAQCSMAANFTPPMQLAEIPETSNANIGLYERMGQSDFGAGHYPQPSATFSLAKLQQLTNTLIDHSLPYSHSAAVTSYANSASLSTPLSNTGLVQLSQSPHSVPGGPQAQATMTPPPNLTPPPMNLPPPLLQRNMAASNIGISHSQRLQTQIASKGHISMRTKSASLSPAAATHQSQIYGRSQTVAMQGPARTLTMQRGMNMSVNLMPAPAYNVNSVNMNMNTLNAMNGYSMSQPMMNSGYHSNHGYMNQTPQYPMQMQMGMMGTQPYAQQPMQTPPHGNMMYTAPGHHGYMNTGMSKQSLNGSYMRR
UniProt Q63ZY3: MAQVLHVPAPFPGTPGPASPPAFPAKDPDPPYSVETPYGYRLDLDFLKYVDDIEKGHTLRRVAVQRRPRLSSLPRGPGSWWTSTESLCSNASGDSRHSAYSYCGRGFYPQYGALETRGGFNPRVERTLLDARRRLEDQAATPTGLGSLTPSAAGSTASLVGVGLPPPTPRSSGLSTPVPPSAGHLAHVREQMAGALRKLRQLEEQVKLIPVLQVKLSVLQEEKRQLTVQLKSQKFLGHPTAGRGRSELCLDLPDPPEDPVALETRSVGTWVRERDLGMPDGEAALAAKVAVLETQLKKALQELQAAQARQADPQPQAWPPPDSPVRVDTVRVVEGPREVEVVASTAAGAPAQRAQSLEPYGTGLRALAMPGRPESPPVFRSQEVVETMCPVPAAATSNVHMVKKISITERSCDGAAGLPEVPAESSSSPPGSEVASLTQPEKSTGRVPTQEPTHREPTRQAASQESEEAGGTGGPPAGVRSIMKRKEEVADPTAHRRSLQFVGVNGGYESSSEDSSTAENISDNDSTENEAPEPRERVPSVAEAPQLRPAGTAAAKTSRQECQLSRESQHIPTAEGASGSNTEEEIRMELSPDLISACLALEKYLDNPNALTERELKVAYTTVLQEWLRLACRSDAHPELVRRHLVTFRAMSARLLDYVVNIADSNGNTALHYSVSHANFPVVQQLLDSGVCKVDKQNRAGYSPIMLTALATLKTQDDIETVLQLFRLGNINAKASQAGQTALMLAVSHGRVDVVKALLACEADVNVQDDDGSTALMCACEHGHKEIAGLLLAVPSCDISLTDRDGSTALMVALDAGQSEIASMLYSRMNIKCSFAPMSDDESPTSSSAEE
UniProt Q06136: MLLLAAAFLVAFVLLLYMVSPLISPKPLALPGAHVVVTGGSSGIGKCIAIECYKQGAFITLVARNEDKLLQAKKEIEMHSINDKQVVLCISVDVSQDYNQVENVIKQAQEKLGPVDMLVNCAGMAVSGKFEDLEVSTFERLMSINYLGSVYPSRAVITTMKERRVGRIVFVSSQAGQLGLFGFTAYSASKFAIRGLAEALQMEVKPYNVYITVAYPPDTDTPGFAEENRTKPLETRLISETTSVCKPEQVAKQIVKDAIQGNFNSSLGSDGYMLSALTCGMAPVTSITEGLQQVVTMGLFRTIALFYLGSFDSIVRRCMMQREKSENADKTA
UniProt Q92945: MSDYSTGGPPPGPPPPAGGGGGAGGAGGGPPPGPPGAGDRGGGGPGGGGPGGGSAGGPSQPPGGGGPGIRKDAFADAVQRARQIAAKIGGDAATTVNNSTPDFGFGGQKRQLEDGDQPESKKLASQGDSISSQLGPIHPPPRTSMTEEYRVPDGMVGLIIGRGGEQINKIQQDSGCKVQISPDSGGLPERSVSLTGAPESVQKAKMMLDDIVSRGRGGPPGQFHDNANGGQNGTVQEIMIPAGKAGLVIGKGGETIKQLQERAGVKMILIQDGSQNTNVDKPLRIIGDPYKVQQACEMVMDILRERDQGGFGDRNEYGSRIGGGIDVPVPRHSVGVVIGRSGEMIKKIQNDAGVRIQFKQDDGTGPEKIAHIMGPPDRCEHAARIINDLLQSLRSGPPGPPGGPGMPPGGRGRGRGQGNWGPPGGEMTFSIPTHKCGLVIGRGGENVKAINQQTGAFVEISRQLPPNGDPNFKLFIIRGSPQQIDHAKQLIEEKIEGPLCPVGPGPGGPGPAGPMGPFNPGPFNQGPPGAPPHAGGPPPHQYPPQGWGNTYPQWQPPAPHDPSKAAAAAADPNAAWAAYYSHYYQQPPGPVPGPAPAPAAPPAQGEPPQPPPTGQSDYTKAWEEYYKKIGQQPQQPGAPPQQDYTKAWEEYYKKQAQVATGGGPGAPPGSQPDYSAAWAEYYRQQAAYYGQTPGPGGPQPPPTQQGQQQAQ

These targets were tested with Cc1cc(ccc1-c1ccccc1)C(=O)N1CCCN(CC1)C(=O)CCl [compound 10] (assay: probe-labelled cysteine peptide fold change vs DMSO (competition) (log2 fold change); higher = less target engagement (more negative = stronger competition)). Details: 10 µM; THP-1; incubation time: 4 h.
“KANSL2_Q9H9L4_88_DGVSFCAEHVR (UniProt Q9H9L4)” was tested, and the “probe-labelled cysteine peptide fold change” value was 0.0254.
In the case of “KATNA1_O75449_491_WIFEFGSC (UniProt O75449)”, the “probe-labelled cysteine peptide fold change” value is reported as -0.176.
“KIDINS220_Q9ULH0_747_CEVELMAR (UniProt Q9ULH0)” was tested, and the “probe-labelled cysteine peptide fold change” value was 0.0595.
“KIDINS220_Q9ULH0_867_FLVTSATNGDVPCSDTTGIQEDADRR (UniProt Q9ULH0)” was tested, and the “probe-labelled cysteine peptide fold change” value was -0.0872.
For “KAT6B_Q8WYB5_837_GCHLVGYFSK (UniProt Q8WYB5)”, the “probe-labelled cysteine peptide fold change” value was -0.127.
For “JMJD1C_Q15652_1721+1722_QTGESFLQDDSCCEIGPNLQK (UniProt Q15652)”, the “probe-labelled cysteine peptide fold change” value was 0.165.
With “KDM2A_Q9Y2K7_463_CLVDKLESLPLHKK (UniProt Q9Y2K7)” the “probe-labelled cysteine peptide fold change” value was -0.116.
For “KDM4A_O75164_763_ASEDWMCSR (UniProt O75164)”, the “probe-labelled cysteine peptide fold change” value was 0.2.
“KIF20A_O95235_809_AACIAEQYHTVLK (UniProt O95235)” was tested, and the “probe-labelled cysteine peptide fold change” value was 0.0927.
“JAK1_P23458_257_TICDSSVSTHDLK (UniProt P23458)” was tested, and the “probe-labelled cysteine peptide fold change” value was 0.0161.
“KANK2_Q63ZY3_562_QECQLSR (UniProt Q63ZY3)” was tested, and the “probe-labelled cysteine peptide fold change” value was -0.03.
“KDSR_Q06136_245_LISETTSVCKPEQVAK (UniProt Q06136)” was tested, and the “probe-labelled cysteine peptide fold change” value was -0.219.
“KEAP1_Q14145_368_SGLAGCVVGGLLYAVGGR (UniProt Q14145)” was tested, and the “probe-labelled cysteine peptide fold change” value was 0.148.
In the case of “KIF21A_Q7Z4S6_1588_DWVCALGVVPDHPVLLSGCR (UniProt Q7Z4S6)”, the “probe-labelled cysteine peptide fold change” value is reported as -0.0354.
With “KATNB1_Q9BVA0_499_GHDTMCVVLTSR (UniProt Q9BVA0)” the “probe-labelled cysteine peptide fold change” value was 0.281.
In the case of “KHSRP_Q92945_379_CEHAAR (UniProt Q92945)”, the “probe-labelled cysteine peptide fold change” value is reported as 0.0644.
In the case of “ITPR1_Q14643_1471_ACNNTSDR (UniProt Q14643)”, the “probe-labelled cysteine peptide fold change” value is reported as 0.656.
With “KIAA1958_Q8N8K9_246_PKPQTHAGPSCVGSAK (UniProt Q8N8K9)” the “probe-labelled cysteine peptide fold change” value was -0.307.
With “KDELC2_Q7Z4H8_497_DGMELVPQPEDSTAICQCHR (UniProt Q7Z4H8)” the “probe-labelled cysteine peptide fold change” value was -0.0963.
In the case of “KANK2_Q63ZY3_761+780_ALLACEADVNVQDDDGSTALMCACEHGHK (UniProt Q63ZY3)”, the “probe-labelled cysteine peptide fold change” value is reported as -0.0602.
For “KHDC4_Q7Z7F0_116_SKDDLVVAEVEINDVPLTCR (UniProt Q7Z7F0)”, the “probe-labelled cysteine peptide fold change” value was -0.146.
For “KHSRP_Q92945_436_CGLVIGR (UniProt Q92945)”, the “probe-labelled cysteine peptide fold change” value was 0.173.
